Source: the supplement of paper PMC11006884
This list holds what a sample rich in targets with a hit left over. This is a noisy data set. Only a part is listed here, and it is no random draw.

The chains behind the UniProt entries cited, without tags or fusion partners. Where a name states a change or a piece, a line headed by the entry shows the natural chain unless it says otherwise.
UniProt Q9Y678: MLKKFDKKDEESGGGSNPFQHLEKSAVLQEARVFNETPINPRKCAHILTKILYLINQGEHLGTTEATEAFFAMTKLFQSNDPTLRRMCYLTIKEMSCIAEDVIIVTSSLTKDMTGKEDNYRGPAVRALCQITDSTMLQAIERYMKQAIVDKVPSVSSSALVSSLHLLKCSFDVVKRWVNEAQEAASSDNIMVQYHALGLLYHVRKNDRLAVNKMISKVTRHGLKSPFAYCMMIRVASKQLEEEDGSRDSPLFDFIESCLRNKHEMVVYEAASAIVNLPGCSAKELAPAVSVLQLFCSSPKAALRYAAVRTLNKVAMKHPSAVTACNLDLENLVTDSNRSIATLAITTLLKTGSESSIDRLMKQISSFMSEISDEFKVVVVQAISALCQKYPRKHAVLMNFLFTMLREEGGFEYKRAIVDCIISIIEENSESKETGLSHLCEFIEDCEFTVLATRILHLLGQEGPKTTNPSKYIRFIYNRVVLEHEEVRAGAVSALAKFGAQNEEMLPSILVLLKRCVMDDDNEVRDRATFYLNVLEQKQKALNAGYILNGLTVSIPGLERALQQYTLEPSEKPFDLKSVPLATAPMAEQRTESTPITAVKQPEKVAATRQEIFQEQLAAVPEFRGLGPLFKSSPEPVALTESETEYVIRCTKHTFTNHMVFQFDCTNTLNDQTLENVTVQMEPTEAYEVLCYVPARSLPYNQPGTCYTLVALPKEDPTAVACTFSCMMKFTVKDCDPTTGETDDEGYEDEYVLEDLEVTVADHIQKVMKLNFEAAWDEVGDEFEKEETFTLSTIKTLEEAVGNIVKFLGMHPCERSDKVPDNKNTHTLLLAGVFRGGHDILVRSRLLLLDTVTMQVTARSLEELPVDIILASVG
UniProt Q9Y4B6: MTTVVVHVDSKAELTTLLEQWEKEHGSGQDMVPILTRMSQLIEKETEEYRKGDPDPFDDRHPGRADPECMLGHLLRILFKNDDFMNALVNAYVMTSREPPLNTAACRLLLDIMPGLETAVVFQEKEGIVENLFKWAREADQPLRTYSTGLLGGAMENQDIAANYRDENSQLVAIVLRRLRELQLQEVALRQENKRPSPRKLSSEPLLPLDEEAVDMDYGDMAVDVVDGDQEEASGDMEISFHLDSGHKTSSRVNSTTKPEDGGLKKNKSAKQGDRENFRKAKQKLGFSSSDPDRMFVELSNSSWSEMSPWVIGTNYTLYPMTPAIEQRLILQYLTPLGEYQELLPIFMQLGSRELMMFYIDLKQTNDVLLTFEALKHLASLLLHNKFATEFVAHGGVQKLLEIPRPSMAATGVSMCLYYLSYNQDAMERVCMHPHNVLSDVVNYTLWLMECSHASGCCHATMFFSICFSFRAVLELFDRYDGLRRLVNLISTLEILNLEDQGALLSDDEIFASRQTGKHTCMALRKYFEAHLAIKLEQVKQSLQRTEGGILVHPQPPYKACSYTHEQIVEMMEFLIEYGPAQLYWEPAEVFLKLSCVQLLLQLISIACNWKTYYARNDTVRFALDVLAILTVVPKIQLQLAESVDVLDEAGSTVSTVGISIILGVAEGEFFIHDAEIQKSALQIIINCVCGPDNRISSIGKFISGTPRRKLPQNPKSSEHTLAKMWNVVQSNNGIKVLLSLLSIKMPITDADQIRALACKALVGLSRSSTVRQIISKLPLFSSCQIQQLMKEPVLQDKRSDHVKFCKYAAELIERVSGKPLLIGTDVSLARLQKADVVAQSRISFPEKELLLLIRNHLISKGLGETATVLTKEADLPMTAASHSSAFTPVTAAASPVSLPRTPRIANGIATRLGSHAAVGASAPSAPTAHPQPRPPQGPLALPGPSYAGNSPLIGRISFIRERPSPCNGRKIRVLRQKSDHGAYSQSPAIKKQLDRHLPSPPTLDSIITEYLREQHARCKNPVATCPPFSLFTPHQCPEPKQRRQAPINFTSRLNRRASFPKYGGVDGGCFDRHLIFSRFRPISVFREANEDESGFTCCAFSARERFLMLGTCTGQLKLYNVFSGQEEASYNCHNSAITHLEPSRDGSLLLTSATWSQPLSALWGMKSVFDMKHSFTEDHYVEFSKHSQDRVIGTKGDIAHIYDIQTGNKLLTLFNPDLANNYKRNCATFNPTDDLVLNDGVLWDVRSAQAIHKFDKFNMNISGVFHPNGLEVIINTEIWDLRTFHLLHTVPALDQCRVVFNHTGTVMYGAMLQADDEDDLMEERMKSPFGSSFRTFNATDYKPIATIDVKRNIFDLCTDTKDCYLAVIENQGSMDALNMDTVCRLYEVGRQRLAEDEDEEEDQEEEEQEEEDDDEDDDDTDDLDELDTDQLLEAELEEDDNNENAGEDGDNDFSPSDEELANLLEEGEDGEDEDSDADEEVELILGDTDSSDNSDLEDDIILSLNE
UniProt Q9Y490: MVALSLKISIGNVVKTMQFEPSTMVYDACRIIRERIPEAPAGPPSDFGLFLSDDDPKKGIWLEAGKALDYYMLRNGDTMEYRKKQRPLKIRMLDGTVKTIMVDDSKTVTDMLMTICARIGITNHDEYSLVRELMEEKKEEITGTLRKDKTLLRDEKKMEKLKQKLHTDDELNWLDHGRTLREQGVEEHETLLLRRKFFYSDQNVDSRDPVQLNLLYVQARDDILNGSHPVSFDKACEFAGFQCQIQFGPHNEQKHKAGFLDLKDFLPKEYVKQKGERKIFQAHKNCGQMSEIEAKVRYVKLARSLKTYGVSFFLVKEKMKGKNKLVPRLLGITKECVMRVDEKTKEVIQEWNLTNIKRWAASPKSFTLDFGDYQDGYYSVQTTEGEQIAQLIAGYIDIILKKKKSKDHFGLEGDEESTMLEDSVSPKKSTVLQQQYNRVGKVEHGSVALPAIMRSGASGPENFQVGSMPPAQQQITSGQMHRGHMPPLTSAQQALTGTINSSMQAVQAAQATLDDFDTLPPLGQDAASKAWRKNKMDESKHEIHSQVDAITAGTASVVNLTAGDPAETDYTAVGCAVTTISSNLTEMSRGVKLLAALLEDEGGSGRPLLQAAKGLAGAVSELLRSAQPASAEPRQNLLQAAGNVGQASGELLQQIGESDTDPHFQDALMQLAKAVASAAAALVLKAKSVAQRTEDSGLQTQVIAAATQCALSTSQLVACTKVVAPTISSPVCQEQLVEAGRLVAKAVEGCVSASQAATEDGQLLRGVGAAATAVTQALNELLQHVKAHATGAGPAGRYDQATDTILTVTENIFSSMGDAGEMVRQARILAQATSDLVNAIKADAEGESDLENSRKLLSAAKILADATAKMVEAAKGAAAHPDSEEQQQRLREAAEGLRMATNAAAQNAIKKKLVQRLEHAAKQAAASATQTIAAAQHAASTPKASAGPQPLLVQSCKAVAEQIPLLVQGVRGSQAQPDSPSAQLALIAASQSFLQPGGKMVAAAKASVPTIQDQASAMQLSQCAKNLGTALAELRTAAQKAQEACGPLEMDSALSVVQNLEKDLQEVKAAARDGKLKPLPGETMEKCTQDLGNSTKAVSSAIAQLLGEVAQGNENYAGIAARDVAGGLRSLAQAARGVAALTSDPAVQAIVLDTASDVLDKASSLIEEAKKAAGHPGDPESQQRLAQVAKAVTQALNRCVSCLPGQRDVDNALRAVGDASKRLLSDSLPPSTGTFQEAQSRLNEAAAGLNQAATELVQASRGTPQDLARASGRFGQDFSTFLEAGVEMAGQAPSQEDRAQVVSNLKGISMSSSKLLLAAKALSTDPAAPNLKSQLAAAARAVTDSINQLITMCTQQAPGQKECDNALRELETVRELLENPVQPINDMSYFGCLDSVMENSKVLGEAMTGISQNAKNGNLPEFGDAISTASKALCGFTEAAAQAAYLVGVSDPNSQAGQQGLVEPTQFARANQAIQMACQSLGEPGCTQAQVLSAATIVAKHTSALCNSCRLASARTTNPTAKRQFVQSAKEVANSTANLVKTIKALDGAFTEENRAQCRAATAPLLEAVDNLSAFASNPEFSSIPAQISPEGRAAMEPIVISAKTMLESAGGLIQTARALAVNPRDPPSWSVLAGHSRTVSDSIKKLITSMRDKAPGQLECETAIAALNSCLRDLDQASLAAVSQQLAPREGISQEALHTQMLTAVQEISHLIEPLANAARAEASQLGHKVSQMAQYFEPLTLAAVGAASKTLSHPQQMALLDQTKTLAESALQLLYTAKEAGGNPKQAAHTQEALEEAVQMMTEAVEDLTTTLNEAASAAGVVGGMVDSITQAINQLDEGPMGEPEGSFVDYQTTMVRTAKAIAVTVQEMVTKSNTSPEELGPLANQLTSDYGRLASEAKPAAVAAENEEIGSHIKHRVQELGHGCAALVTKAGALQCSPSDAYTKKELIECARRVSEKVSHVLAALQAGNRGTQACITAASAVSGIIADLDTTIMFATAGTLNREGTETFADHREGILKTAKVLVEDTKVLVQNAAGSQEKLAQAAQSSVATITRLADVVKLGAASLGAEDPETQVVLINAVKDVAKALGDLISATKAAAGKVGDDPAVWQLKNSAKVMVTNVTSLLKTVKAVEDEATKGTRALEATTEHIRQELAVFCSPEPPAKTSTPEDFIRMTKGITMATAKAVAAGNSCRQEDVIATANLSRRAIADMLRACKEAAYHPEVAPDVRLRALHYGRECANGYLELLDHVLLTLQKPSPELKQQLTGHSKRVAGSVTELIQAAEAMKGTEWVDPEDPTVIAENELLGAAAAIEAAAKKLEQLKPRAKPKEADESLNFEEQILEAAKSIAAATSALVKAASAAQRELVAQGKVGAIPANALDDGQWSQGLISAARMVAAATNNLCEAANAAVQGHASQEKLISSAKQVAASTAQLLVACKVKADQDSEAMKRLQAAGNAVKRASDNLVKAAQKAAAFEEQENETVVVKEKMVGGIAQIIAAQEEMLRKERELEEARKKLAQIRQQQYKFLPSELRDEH
UniProt Q9Y6J9: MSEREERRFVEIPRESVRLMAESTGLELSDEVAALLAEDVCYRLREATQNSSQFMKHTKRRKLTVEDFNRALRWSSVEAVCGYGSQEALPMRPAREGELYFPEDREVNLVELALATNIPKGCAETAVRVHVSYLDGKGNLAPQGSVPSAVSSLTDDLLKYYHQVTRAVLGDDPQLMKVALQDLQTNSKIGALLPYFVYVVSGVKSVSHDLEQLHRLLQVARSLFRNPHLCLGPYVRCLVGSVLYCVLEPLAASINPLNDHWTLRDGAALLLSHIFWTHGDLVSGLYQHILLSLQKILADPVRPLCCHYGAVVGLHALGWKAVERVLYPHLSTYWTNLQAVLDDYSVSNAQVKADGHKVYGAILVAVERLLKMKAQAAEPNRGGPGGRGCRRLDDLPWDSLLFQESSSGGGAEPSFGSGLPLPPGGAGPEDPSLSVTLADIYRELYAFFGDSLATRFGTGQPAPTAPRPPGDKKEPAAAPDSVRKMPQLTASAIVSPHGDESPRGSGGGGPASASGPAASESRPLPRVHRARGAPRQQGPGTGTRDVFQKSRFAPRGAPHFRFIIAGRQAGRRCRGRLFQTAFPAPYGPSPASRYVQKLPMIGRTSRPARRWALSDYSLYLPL
UniProt Q9Y4C2: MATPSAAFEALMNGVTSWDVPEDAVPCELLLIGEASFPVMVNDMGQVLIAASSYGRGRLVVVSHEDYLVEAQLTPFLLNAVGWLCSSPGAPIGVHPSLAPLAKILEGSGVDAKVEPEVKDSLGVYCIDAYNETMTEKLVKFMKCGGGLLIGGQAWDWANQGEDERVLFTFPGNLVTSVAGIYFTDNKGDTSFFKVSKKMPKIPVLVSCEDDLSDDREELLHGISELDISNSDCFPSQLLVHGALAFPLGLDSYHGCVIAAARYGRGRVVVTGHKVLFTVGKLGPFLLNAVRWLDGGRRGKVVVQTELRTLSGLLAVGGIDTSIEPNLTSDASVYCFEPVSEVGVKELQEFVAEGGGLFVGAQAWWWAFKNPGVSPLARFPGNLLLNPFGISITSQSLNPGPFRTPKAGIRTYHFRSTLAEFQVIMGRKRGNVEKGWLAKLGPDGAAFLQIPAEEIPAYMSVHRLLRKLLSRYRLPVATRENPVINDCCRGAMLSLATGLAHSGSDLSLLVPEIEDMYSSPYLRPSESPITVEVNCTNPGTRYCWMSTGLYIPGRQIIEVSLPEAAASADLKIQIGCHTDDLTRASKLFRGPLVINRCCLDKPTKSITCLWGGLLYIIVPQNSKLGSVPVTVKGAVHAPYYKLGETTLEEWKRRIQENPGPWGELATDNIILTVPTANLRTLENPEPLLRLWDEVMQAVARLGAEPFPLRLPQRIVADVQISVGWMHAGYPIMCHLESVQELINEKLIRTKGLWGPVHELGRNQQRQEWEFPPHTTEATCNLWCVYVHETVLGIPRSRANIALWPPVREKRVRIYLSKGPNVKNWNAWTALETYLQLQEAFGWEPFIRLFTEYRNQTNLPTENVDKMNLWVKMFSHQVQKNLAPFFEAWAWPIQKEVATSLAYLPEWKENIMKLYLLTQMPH

compound: COC(=O)/C=C/c1ccccc1 [methyl cinnamate]; test: log2 ratio of iodoacetamide-alkyne labeling of the cysteine site, DMSO over compound (competition); higher = stronger covalent engagement of the cysteine by the compound, active = 1 or more; details: 500 µM; treatment time 1 h; system: HEK293T cell lysate
In short: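 The log2 competition ratio per cysteine is defined as mean reporter intensity in control channels over mean reporter intensity in compound channels. Lysate from HEK293T cells (2 mg/mL) received electrophile (500 µM) or vehicle for 1 h at ambient temperature, followed by iodoacetamide alkyne for 1 h. Samples were clicked to sCIP-TMT reagents, pooled, trypsin-digested overnight at 37 °C, streptavidin-enriched, acid-eluted and run on Orbitrap Eclipse LC-MS/MS with FAIMS, with quantification in FragPipe. Three replicates with duplicate channels were used, and any cysteine quantified in only one replicate was excluded.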

log2 ratio of iodoacetamide-alkyne labeling, inactive:
DTNA C583 (UniProt Q9Y4J8) 0.286
PPME1 C381 (UniProt Q9Y570) 0.241
MAP3K4 C596 (UniProt Q9Y6R4) 0.486
UniProt Q9Y678_C325 -0.00202
USP16 C631 (UniProt Q9Y5T5) 0.506
USP16 C618 (UniProt Q9Y5T5) 0.0638
IKBKG C347 (UniProt Q9Y6K9) 0.288
NFS1 C426 (UniProt Q9Y697) 0.357
TACC3 C662 (UniProt Q9Y6A5) 0.162
UniProt Q9Y4B6_C784 0.16
UniProt Q9Y520_C223 0.239
CLIC4 C35 (UniProt Q9Y696) 0.251
CEP170B C1570 (UniProt Q9Y4F5) 0.408
TLN1 C29 (UniProt Q9Y490) 0.0605
UniProt Q9Y5P4_C185 0.142
TBL2 C335 (UniProt Q9Y4P3) 0.451
IVNS1ABP C274 (UniProt Q9Y6Y0) 0.573
TLN1 C1353 (UniProt Q9Y490) 0.0465
RNF114 C8 (UniProt Q9Y508) 0.377
SNX5 C397 (UniProt Q9Y5X3) -0.0947
TAF6L C41 (UniProt Q9Y6J9) 0.179
TSSC4 C99 (UniProt Q9Y5U2) 0.0575
TCAF1 C576 (UniProt Q9Y4C2) 0.0324
TCAF1 C543 (UniProt Q9Y4C2) 0.372
FHOD1 C502 (UniProt Q9Y613) 0.233
PPME1 C347 (UniProt Q9Y570) -0.0375
FHOD1 C31 (UniProt Q9Y613) 0.0942
TLN1 C1045 (UniProt Q9Y490) 0.0231
UniProt Q9Y520_C177 0.377
ALG5 C194 (UniProt Q9Y673) -0.0996
LAS1L C469 (UniProt Q9Y4W2) -0.251

2 neighbouring entries out of the list so far, for reference:
log2 ratio of iodoacetamide-alkyne labeling, inactive:
TBL2 C335 (UniProt Q9Y4P3) 0.451
IVNS1ABP C274 (UniProt Q9Y6Y0) 0.573
